Data reported in US5514561A, “Fluorogenic and chromogenic β-lactamase substrates” (priority 1994, dated 1996).

Tested on: β-lactamase
Assay: Colorimetric reaction with β-lactamase in the presence of coupling reagents
Format: biochemical

CO/N=C(\C(=O)N[C@@H]1C(=O)N2C(C(=O)O)=C(COC(=O)Nc3c[nH]c4ccccc34)CS[C@H]12)c1csc(N)n1 [cefotaxime indole carbamate, Cefotaxime Indole Carbamate]
Product Color (coupling reagent 2-Methoxy-4-morpholino benzene diazonium Cl, saturated solution in water): Green soln./ppt.
Product Color (coupling reagent Fast Blue BB salt, saturated solution in water): Blue soln./ppt.
Product Color (coupling reagent Fast Red TR salt, saturated solution in water): Red solution
Product Color (coupling reagent Fast Red Violet LB salt, saturated solution in water): Orange soln./ppt.
Product Color (coupling reagent Nitroblue tetrazolium in water): Dark ppt.
